In PubChem BioAssay AID504467 (National Center for Advancing Translational Sciences (NCATS), 2011):
Screen size: about 330,000 compounds; about 7,700 (2.3%) were called active. The inconclusive results got no clear call from the source; some entries with a clear call stand among them for comparison. Calls come from the whole dose curve; as a rule, active = well fitted inhibition curve with a large enough effect; inconclusive = small, poorly fitted or top-dose-only effect, or effect the other way; inactive = flat fitted curve, though single readings scatter. Potencies of inconclusive entries are doubtful fits and often do not repeat.
% is set by controls: 0 for no effect and ±100 for the full control effect; potency is the fitted concentration of half-maximal effect.

Test: qHTS screen for small molecules that inhibit ELG1-dependent DNA repair in human embryonic kidney (HEK293T) cells expressing luciferase-tagged ELG1; note: nearly all actives have a fitted effect of over 55% in size
Conditions: HEK293T ELG1-luciferase reporter, luminescence, 16 h, DNA damage induced by 5-fluorouridine; activity change, negative = inhibition: at 46.1 µM (top of the series)
In short: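 5-Fluorouridine DNA damage + compound/DMSO, 2,000 cells/well, 16 h, 37 °C/5% CO2. ONE-Glo, 30 min RT, luminescence. Readout = decrease in reporter signal.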
For O=C(Nc1ccc(Cl)cn1)C1CCN(S(=O)(=O)c2cccs2)CC1, the Potency was inconclusive: 2.06 µM [inhibitor, partial curve, poor fit]. For CCOc1ccc(NC(=O)CSC2=NN3CCCC(=O)N=C3S2)cc1, the “activity change, negative = inhibition” value was inactive: 13.9%. For COc1cccc(-c2cc(C(=O)N3CCN(c4ncccn4)CC3)c3ccccc3n2)c1, the Potency was inconclusive: 7.31 µM [inhibitor, single point]. With O=C(OCC(=O)N1CCOCC1)c1ccccc1OCc1ccc(Cl)cc1 the Potency was inconclusive: 20.6 µM [activator, partial curve, poor fit]. With COc1cccc(NC(=O)Nc2cnccn2)c1 the Potency was inconclusive: 23.1 µM [activator, partial curve, poor fit]. With CCC1CSC(Nc2ccc(C(=O)/C=C/c3cccc(C)c3)cc2)=N1 (stereo not drawn) the “activity change, negative = inhibition” value was inactive: -6.27%. With COc1ccc(/C=C2\CCC(C3CCCC3)C2=O)cc1 (stereo not drawn) the Potency was inconclusive: 20.6 µM [activator, partial curve]. For NC(=S)N/N=C1\c2ccccc2-c2c(C(=O)O)cccc21, the “activity change, negative = inhibition” value was inactive: -4.81%. With CCN1CCN(C(=O)c2ccc(CS(=O)Cc3ccc(C)cc3)o2)CC1 (stereo not drawn) the Potency was inconclusive: 4.61 µM [inhibitor, partial curve, poor fit]. With C/C(=N\Nc1ccccc1[N+](=O)[O-])c1ccccc1O the Potency was inconclusive: 16.4 µM [activator, partial curve]. With COc1cccc(C=Nc2ccc3c(c2)OCCO3)c1O the Potency was inconclusive: 20.6 µM [activator, partial curve]. In the case of COc1ccccc1NC(=O)COC(=O)CC(C)(C)CC1=NS(=O)(=O)c2ccccc2N1, the Potency is reported as inconclusive: 20.6 µM [inhibitor, partial curve, poor fit]. For COc1ccc(/C=C2/SC(=S)N(CCCC(=O)Nc3ccc(O)cc3)C2=O)cc1OC, the Potency was inconclusive: 29.1 µM [inhibitor, partial curve, poor fit]. In the case of CC(C)(C)CC(C)(C)NC(=S)Nc1ccc2nc(-c3ccccn3)c(-c3ccccn3)nc2c1, the Potency is reported as inconclusive: 20.6 µM [inhibitor, partial curve, poor fit]. For COCCCNC(=S)N(Cc1ccccc1)Cc1ccccc1, the “activity change, negative = inhibition” value was inactive: -6.84%. For COc1ccc(NC(=O)CC2C(=O)N(C)C(=S)N2CCc2ccccc2F)cc1 (stereo not drawn), the Potency was inconclusive: 18.3 µM [inhibitor, single point]. In the case of COc1cc(-c2cc(=O)c3ccccc3o2)ccc1O, the Potency is reported as inconclusive: 20.6 µM [activator, partial curve]. With O=C(CCl)Nc1ccc(N=Nc2ccccc2)cc1 the Potency was inconclusive: 4.61 µM [activator, single point]. In the case of CCn1c(O)c2ccc(C(=O)N=NC(=O)c3ccccc3)cc2c1O, the Potency is reported as inconclusive: 29.1 µM [activator, single point]. In the case of CC[C@@]12C(=O)N(c3cccc(F)c3)C(=O)N1[C@H](c1ccc(Cl)cc1)[C@@H]1C(=O)N(C3CCCCC3)C(=O)[C@@H]12, the “activity change, negative = inhibition” value is reported as inactive: -5.57%. In the case of Cc1oc(-c2ccccc2Cl)nc1CSCC(=O)O, the “activity change, negative = inhibition” value is reported as inactive: -2.87%. In the case of CC(C)(C)OC(=O)NCCc1nnc(SCc2ccccc2)o1, the Potency is reported as inconclusive: 9.2 µM [inhibitor, partial curve, poor fit]. In the case of CCOc1ccccc1OCCCNCc1ccco1, the “activity change, negative = inhibition” value is reported as inactive: 0.395%. With CC(C)c1ccc(/C=C/C(=O)NC2CCCCC2)cc1 the Potency was inconclusive: 16.4 µM [activator, single point]. For Cc1cccc2cc(C3CC(c4cccs4)=NN3S(C)(=O)=O)c(Cl)nc12 (stereo not drawn), the Potency was inconclusive: 25.9 µM [inhibitor, single point]. In the case of Cc1ccc(NC(=O)CN(C)C(=O)c2ccccc2OCc2c(C)noc2C)cc1, the Potency is reported as inconclusive: 5.17 µM [activator, single point]. With CC(=O)N1CCc2cc(S(=O)(=O)NCCC(=O)NCCc3ccc(C)cc3)ccc21 the Potency was inconclusive: 5.8 µM [inhibitor, single point]. For CCOc1[nH]n(-c2ccc(Cl)cc2)c(=O)c1C=Nc1ccc(O)cc1, the Potency was inconclusive: 16.4 µM [inhibitor, single point]. In the case of C=CCn1c(SCC(=O)NCc2ccccc2)nnc1-c1ccccc1O, the Potency is reported as active: 18.4 µM. In the case of Cc1ccc2cc(/C=N/Nc3nc4ccccc4[nH]3)c(Cl)nc2c1, the Potency is reported as inconclusive: 1.64 µM [activator, partial curve]. With O=C(Nc1cc(S(=O)(=O)N2CCOCC2)ccc1N1CCCC1)c1cc(F)c(F)cc1Cl the “activity change, negative = inhibition” value was inactive: 8.43%. For COc1ccccc1N1CCN(C(=O)c2ccc3c(c2)CCN3S(C)(=O)=O)CC1, the “activity change, negative = inhibition” value was inactive: -2.52%. In the case of CCCc1cc(=O)[nH]c(SCC(=O)NCC2COc3ccccc3O2)n1 (stereo not drawn), the Potency is reported as inconclusive: 6.31 µM [activator, full curve, poor fit]. For C=C(C)C1CC=C(C)/C(=N/NC(=S)Nc2ccccc2)C1 (stereo not drawn), the “activity change, negative = inhibition” value was inactive: 4.89%. In the case of CCOC(=O)c1snc(-c2ccc(F)cc2)c1N, the Potency is reported as inconclusive: 23.1 µM [activator, partial curve]. For CCOC(=O)c1sc(-c2ccccc2)cc1N, the Potency was inconclusive: 10.3 µM [activator, partial curve]. For O=C(NCCN1CCOCC1)c1ccc2c(c1)N(Cc1ccccc1F)C(=O)CS2, the “activity change, negative = inhibition” value was inactive: -5.2%. In the case of COc1cccc(C(=O)Nc2ccc(NC(=O)C3C4C=CC(C4)C3C(=O)O)cc2)c1 (stereo not drawn), the Potency is reported as inconclusive: 20.6 µM [inhibitor, single point]. In the case of Cc1sc2ncnc(N3CCC(C(=O)NNC(=O)c4ccc(F)cc4)CC3)c2c1C, the Potency is reported as inconclusive: 11.2 µM [inhibitor, partial curve, poor fit]. For CCc1noc(C)c1C(=O)N(CC)CC(=O)Nc1cc(Cl)ccc1C, the “activity change, negative = inhibition” value was inactive: 7.66%. With COc1ccc(CCN(C)C(=O)c2cc(=O)c3ccccc3o2)cc1OC the Potency was inconclusive: 29.1 µM [activator, single point]. In the case of CCCCN=C1N/C(=C\c2ccco2)C(=O)N1c1ccccc1, the Potency is reported as inconclusive: 5.62 µM [activator, single point]. With O=C(Oc1ccc(-c2nc(-c3ccccn3)no2)cc1)c1ccccc1 the Potency was inconclusive: 1.84 µM [activator, partial curve]. In the case of CC(C)OC(=O)CSc1ncnc2c1cnn2Cc1ccccc1, the “activity change, negative = inhibition” value is reported as inactive: -8.7%. In the case of CCOC(=O)c1ccc(NC(=O)CS(=O)(=O)c2cn(CC)c3ccccc23)cc1, the Potency is reported as inconclusive: 4.11 µM [inhibitor, partial curve, poor fit]. In the case of CCOC(=O)c1c(C)[nH]c(C(=O)N2CCN(c3ccc(OC)cc3)CC2)c1C, the Potency is reported as inconclusive: 23.1 µM [inhibitor, single point]. In the case of CC1(C)Cc2nc3sc4c(=O)n(CC(N)=O)cnc4c3cc2CO1, the Potency is reported as inconclusive: 20.6 µM [activator, partial curve]. In the case of COc1cccc(/C=N/NC(=O)c2ccoc2C)c1, the Potency is reported as inconclusive: 8.2 µM [activator, partial curve]. In the case of COc1ccc(C2=Nn3c(C)nnc3SC2)cc1, the Potency is reported as inconclusive: 23.1 µM [activator, single point]. In the case of CCCOC(=O)c1ccc(NC(=O)c2ccc(Br)o2)cc1, the Potency is reported as inconclusive: 5.17 µM [activator, single point]. With CCC(C)(C)n1nnnc1C(c1ccc2ncccc2c1)N1CCN(c2ccc(O)cc2)CC1 (stereo not drawn) the Potency was inconclusive: 23.1 µM [inhibitor, single point]. With CC(C)C(=O)NC(c1cccs1)c1cc([N+](=O)[O-])c2cccnc2c1O (stereo not drawn) the “activity change, negative = inhibition” value was inactive: -26.3%. For CC(=O)N1CCc2cc(S(=O)(=O)N3c4ccccc4CC3C)ccc21 (stereo not drawn), the “activity change, negative = inhibition” value was inactive: -11.2%. In the case of CCOc1cccc(C(=O)Nc2cccc(-c3nc4ncccc4o3)c2C)c1, the Potency is reported as inconclusive: 25.1 µM [inhibitor, single point]. With C=CCn1c(SCC(=O)Nc2ccc(F)cc2)nc2ccccc2c1=O the Potency was inconclusive: 0.291 µM [inhibitor, partial curve, poor fit]. In the case of CCOC(=O)CC1=C(C(=O)OCC)C(c2cc(OC)c(OC)cc2OC)C(C#N)=C(N)O1 (stereo not drawn), the Potency is reported as inconclusive: 16.4 µM [inhibitor, single point]. In the case of OCCC1CN(Cc2ccc3cccc(F)c3n2)CCN1Cc1ccccc1 (stereo not drawn), the “activity change, negative = inhibition” value is reported as inactive: -1.58%. In the case of COc1ccccc1Nc1nc(NCC(C)C)nc(N)c1[N+](=O)[O-], the Potency is reported as active: 8.2 µM. In the case of Cc1cc(C(=O)Nc2cc(C(C)(C)C)on2)c(C)o1, the Potency is reported as inconclusive: 11.6 µM [activator, partial curve]. In the case of Oc1c(Cl)cc(Cl)cc1/C=N/Nc1ncc(Br)cn1, the Potency is reported as inconclusive: 0.82 µM [inhibitor, full curve]. In the case of CCOc1ccc(N=C/C=C/c2ccccc2)c(O)c1, the Potency is reported as inconclusive: 6.51 µM [activator, partial curve]. For CCOc1cc(/C=C/c2cc(C(F)(F)F)[nH]c(=O)n2)ccc1O, the Potency was inconclusive: 29.1 µM [inhibitor, single point]. For OCC[C@H]1C[C@H](O)[C@@H](O)[C@@]2(CCc3ccccc3O2)O1, the Potency was inconclusive: 25.9 µM [activator, single point]. With CN(C)S(=O)(=O)c1cccc(C(=O)OCC(=O)NCc2ccc3c(c2)OCO3)c1 the “activity change, negative = inhibition” value was inactive: -0.0262%. With Cc1ccc(C(=O)N2CCN=C2SCc2ccc([N+](=O)[O-])cc2)cc1 the Potency was inconclusive: 29.1 µM [inhibitor, single point]. For CC(=O)Nc1ccc(OCc2ccc3c(c2)OCO3)cc1, the Potency was inconclusive: 7.94 µM [activator, partial curve, poor fit]. With COc1cc(-c2cc(C(=O)Nc3ccccc3N3CCOCC3)c3ccccc3n2)cc(OC)c1OC the Potency was active: 5.8 µM. With O=c1[nH]c(C2CCN(S(=O)(=O)c3ccc4c(c3)OCCO4)CC2)nc2c1nnn2Cc1ccc(F)cc1 the Potency was inconclusive: 10.3 µM [inhibitor, partial curve, poor fit].
